Among the data in article doi:10.1101/2021.08.16.456439 are binding values, retold here.

Chains of the proteins cited; added tags and fusions are not shown.
UniProt P61081: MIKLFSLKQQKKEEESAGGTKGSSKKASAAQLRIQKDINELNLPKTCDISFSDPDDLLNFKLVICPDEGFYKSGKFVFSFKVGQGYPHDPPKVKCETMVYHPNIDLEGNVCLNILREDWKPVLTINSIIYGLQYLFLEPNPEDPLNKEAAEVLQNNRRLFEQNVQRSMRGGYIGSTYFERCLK
UniProt O75925: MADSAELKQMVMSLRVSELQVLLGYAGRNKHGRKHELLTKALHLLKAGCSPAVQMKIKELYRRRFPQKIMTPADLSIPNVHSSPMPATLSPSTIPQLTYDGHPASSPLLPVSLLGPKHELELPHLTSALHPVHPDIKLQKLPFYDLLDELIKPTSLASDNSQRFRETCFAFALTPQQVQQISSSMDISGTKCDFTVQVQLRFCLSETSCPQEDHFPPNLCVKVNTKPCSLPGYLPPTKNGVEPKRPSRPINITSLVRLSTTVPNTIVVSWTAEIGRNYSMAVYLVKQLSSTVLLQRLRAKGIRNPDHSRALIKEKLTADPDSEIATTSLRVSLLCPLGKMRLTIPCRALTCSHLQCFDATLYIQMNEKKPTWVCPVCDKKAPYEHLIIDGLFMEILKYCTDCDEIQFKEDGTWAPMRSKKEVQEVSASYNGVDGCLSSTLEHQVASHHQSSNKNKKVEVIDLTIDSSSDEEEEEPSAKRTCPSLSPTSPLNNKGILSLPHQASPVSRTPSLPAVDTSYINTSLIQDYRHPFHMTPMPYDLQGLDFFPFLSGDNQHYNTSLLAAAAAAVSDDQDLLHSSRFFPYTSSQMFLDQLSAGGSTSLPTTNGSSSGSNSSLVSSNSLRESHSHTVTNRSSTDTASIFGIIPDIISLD

In this test the target is CyPet-Ubc12 (UniProt P61081). Kind of test: FRET or BRET. For orientation: Bioluminescence resonance energy transfer reports proximity on the nanometre scale.

No constants are given. Whether binding was seen depends on the method and setting. Binding seen in cells or lysates may run through a third protein.

In the case of “YPet-PIAS1 (from UniProt O75925 1-651) (enzyme)”, the binding entry is “no binding”.
